Results are given in words; binding and its absence hold for the method and conditions named. In cells and extracts the contact can be indirect. Some entries that bind do so weakly or less than the wild type. For some assays here: Sequences can lack the tags named with a protein.

Protein sequences, listed by entry. Tags and fused reporters are not part of them.
UniProt P46940: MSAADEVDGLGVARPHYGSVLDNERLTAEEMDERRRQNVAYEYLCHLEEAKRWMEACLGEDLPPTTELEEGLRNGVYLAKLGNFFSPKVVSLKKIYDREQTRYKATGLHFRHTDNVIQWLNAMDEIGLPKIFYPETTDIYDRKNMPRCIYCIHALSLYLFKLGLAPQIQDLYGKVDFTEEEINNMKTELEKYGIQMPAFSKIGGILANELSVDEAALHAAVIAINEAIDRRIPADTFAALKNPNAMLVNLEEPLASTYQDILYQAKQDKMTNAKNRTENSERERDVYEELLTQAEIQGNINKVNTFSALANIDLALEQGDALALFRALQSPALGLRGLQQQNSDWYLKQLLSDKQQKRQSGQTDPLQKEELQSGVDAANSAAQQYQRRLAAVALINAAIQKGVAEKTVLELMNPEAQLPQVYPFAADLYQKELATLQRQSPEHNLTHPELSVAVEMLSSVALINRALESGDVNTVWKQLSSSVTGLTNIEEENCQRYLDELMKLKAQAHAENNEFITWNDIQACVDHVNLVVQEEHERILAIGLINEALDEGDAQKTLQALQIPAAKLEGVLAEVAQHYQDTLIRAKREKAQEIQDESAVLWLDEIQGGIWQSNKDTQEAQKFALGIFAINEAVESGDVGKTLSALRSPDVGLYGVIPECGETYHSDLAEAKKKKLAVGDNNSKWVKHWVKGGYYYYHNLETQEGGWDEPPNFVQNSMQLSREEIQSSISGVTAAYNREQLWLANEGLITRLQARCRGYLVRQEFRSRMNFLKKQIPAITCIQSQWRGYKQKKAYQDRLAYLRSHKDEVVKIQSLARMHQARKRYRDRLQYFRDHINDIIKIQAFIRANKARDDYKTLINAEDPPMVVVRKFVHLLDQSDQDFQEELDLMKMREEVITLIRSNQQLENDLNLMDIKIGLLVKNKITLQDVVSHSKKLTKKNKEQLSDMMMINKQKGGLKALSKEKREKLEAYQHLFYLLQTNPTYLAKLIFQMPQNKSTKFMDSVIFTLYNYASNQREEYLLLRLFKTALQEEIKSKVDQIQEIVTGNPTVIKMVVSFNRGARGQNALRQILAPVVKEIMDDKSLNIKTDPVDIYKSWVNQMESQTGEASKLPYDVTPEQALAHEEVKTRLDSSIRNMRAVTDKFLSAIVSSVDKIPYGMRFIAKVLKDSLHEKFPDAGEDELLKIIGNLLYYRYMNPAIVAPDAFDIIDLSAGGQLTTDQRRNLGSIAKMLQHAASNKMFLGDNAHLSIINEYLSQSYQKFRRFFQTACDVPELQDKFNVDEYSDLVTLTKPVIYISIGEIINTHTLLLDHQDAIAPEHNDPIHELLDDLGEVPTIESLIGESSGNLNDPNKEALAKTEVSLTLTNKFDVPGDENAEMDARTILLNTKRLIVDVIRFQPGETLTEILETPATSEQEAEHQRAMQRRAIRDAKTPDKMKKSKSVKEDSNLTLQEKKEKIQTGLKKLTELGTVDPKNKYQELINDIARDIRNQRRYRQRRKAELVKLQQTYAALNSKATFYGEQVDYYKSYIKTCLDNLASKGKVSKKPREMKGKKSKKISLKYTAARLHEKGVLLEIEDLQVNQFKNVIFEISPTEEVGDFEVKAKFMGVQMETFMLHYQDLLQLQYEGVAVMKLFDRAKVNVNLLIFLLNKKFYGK
UniProt Q9Y5S2: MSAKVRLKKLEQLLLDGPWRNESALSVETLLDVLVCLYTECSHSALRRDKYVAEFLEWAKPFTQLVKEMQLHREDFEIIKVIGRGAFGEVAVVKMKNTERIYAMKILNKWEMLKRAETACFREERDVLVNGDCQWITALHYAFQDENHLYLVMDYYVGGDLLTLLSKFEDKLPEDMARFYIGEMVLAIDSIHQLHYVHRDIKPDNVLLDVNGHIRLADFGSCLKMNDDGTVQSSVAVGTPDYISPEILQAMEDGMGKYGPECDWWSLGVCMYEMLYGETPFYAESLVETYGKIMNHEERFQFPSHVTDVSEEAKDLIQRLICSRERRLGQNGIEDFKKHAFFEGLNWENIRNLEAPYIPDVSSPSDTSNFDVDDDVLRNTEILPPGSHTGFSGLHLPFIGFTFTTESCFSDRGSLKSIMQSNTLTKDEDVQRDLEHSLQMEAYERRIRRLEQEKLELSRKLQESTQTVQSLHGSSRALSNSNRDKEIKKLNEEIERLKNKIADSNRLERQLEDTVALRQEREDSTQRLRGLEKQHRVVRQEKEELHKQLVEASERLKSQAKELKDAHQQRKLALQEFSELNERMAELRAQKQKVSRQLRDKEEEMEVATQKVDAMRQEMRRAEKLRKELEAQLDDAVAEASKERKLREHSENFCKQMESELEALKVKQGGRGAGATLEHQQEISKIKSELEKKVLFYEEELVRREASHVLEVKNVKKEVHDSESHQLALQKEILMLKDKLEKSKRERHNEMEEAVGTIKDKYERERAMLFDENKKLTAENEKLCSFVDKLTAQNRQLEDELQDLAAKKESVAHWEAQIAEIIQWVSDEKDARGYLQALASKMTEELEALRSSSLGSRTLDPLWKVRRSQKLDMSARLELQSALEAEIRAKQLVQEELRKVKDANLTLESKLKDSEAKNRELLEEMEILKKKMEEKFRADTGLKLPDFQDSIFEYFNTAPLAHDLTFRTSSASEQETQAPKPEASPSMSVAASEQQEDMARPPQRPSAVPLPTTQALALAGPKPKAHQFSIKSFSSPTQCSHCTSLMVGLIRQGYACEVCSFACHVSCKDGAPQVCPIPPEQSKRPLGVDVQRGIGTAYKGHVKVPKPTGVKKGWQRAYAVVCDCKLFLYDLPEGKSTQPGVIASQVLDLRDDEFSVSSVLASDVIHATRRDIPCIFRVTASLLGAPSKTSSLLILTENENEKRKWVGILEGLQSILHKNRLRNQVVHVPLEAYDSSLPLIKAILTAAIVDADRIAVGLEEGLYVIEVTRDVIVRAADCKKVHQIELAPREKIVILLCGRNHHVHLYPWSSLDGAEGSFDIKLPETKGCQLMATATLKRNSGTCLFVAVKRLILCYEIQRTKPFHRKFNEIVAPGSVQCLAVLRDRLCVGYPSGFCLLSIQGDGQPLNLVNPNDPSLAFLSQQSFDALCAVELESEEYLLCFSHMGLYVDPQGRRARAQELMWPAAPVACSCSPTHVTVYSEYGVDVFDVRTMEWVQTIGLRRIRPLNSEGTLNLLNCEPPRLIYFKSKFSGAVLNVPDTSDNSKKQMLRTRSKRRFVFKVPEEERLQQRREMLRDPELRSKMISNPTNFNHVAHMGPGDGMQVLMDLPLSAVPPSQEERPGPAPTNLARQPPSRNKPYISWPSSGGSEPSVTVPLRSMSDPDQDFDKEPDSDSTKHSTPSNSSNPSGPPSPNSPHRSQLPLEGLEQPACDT
UniProt P07737: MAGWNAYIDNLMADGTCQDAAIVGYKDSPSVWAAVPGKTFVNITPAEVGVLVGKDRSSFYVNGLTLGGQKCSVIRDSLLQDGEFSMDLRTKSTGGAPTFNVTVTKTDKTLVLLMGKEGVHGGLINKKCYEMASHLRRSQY

Test [1] concerns the target T1, endogenous p130Cas (human (endogenous in HUVEC)) (UniProt P56945).
T1 sequence: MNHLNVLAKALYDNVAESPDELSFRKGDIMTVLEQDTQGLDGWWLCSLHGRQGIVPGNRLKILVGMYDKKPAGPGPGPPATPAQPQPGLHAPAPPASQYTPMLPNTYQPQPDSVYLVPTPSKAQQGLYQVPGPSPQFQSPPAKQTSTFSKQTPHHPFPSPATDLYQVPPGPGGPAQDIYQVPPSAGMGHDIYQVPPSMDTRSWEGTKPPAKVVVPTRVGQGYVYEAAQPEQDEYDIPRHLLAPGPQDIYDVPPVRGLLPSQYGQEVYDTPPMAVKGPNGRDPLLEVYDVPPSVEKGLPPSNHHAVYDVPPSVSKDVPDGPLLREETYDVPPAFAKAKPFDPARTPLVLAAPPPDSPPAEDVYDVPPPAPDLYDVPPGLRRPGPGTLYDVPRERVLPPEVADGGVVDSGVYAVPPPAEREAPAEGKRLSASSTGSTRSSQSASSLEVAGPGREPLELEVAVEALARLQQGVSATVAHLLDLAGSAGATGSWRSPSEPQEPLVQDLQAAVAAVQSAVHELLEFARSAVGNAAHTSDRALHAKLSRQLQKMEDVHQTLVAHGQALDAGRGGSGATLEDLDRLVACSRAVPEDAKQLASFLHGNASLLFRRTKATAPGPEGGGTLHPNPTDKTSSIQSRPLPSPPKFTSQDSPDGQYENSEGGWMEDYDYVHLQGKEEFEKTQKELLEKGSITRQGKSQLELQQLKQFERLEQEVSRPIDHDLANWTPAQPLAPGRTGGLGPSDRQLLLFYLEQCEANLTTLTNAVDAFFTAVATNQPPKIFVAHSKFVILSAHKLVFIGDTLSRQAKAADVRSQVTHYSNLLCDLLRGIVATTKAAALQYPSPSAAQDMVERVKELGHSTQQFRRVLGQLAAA
The test can be described thus: co-IP; endogenous p130Cas immunoprecipitated with anti-p130Cas antibody from HUVEC lysates, with or without VEGF (also after siNRP1 or siScr); immunoblot for the partners.

The target in test [2] is T2, wild-type (WT) p130Cas, overexpressed from adenovirus (Ad.p130Cas) (UniProt P56945).
T2 sequence: T1 sequence
Kind of test: co-IP; HUVECs infected with Ad.p130CasWT or Ad.p130Cas15F for 48 h, with or without 25 ng/ml VEGF for 30 min; immunoprecipitated with anti-p130Cas antibody, immunoblotted for p130Cas and IQGAP1. In general terms: In western blotting, separated proteins are transferred to a membrane and probed.

The target of test [3] is recombinant full-length IQGAP1 protein fused to GST (UniProt P46940). Kind of test: pull-down; recombinant GST-IQGAP1 (full length) incubated with HUVEC lysates, cells with or without VEGF treatment; p130Cas detected; only the target purified.

Consider “CDC42 binding protein kinase beta (CDC42BPB or myotonic dystrophy-related CDC42-binding kinase (MRCKβ)) (from UniProt Q9Y5S2 1-1711)”, for which the binding entry in test [1] is listed as “binds”.
Take Profilin-1 (from UniProt P07737 1-140): in test [1], the binding result is listed as “binds”.
With “IQGAP1, GTPase-binding scaffold protein, endogenous (from UniProt P46940 1-1657)”, the binding entry in test [1] and in test [2] was “binds” each time.

B1: endogenous p130Cas (protein, UniProt P56945 1-870)
chain: T1 sequence
In the case of B1, the binding entry in test [3] is “binds”.

The record behind these values is PMC5294206.
